Data on one molecule can be found in paper PMC11566183.

By UniProt entry, the sequences of proteins in these tests, tags left out.
UniProt P11142: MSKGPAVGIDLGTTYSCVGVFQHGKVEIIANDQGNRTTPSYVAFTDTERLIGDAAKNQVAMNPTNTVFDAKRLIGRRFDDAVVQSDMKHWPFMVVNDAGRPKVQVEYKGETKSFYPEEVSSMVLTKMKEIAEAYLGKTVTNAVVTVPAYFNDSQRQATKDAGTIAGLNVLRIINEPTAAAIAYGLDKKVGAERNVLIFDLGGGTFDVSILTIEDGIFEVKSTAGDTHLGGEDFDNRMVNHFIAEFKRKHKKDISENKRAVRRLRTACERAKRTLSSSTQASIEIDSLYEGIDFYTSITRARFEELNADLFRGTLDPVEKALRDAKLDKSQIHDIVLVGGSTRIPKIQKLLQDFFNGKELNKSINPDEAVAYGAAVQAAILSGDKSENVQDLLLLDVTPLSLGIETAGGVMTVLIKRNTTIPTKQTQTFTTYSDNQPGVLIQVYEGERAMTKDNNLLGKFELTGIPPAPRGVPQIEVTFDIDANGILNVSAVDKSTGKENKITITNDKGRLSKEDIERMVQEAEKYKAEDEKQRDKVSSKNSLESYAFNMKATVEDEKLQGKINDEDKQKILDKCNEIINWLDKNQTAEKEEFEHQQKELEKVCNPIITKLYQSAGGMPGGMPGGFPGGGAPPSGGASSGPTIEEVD

This assay concerns the target myc-tagged full-length HSPA8 (HSPA8-myc) (UniProt P11142). As to the kind of experiment: co-IP; HEK-293 T cells co-transfected with the plasmids for 36 h; WB/IP lysis buffer with protease inhibitors; supernatant incubated overnight at 4 °C with anti-HA, anti-Flag or anti-myc magnetic beads; washed with cold PBS; immunoblot; HSPA8-myc with Flag-TBK1 tested with Nsp2-HA or HA-tagged empty ….

These are yes or no findings as the source states them, for the method shown. Binding seen in cells or lysates may run through a third protein. Some entries that bind do so weakly or less than the wild type. Sequences can lack the tags named with a protein.

B1: Flag-tagged TANK-binding kinase 1 (Flag-TBK1) (enzyme, UniProt Q9UHD2 1-729)
chain: MQSTSNHLWLLSDILGQGATANVFRGRHKKTGDLFAIKVFNNISFLRPVDVQMREFEVLKKLNHKNIVKLFAIEEETTTRHKVLIMEFCPCGSLYTVLEEPSNAYGLPESEFLIVLRDVVGGMNHLRENGIVHRDIKPGNIMRVIGEDGQSVYKLTDFGAARELEDDEQFVSLYGTEEYLHPDMYERAVLRKDHQKKYGATVDLWSIGVTFYHAATGSLPFRPFEGPRRNKEVMYKIITGKPSGAISGVQKAENGPIDWSGDMPVSCSLSRGLQVLLTPVLANILEADQEKCWGFDQFFAETSDILHRMVIHVFSLQQMTAHKIYIHSYNTATIFHELVYKQTKIISSNQELIYEGRRLVLEPGRLAQHFPKTTEENPIFVVSREPLNTIGLIYEKISLPKVHPRYDLDGDASMAKAITGVVCYACRIASTLLLYQELMRKGIRWLIELIKDDYNETVHKKTEVVITLDFCIRNIEKTVKVYEKLMKINLEAAELGEISDIHTKLLRLSSSQGTIETSLQDIDSRLSPGGSLADAWAHQEGTHPKDRNVEKLQVLLNCMTEIYYQFKKDKAERRLAYNEEQIHKFDKQKLYYHATKAMTHFTDECVKKYEAFLNKSEEWIRKMLHLRKQLLSLTNQCFDIEEEVSKYQEYTNELQETLPQKMFTASSGIKHTMTPIYPSSNTLVEMTLGMKKLKEEMEGVVKELAENNHILERFGSLTMDGGLRNVDCL
For the molecule B1, the binding entry is on record as “binds”.
